Experimental data taken from the supplement of paper PMC6411743.
± gives the standard deviation of the averaged measurements. The list shows a part of the results, in another mix than the full data.

Chains of the proteins cited; added tags and fusions are not shown. Lines headed by an entry give the natural chain unless they say otherwise; changes in a name come on top.
UniProt Q96A57: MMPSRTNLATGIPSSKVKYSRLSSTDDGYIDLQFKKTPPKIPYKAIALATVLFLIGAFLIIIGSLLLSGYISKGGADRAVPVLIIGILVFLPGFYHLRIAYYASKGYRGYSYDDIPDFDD
UniProt Q9NZM3: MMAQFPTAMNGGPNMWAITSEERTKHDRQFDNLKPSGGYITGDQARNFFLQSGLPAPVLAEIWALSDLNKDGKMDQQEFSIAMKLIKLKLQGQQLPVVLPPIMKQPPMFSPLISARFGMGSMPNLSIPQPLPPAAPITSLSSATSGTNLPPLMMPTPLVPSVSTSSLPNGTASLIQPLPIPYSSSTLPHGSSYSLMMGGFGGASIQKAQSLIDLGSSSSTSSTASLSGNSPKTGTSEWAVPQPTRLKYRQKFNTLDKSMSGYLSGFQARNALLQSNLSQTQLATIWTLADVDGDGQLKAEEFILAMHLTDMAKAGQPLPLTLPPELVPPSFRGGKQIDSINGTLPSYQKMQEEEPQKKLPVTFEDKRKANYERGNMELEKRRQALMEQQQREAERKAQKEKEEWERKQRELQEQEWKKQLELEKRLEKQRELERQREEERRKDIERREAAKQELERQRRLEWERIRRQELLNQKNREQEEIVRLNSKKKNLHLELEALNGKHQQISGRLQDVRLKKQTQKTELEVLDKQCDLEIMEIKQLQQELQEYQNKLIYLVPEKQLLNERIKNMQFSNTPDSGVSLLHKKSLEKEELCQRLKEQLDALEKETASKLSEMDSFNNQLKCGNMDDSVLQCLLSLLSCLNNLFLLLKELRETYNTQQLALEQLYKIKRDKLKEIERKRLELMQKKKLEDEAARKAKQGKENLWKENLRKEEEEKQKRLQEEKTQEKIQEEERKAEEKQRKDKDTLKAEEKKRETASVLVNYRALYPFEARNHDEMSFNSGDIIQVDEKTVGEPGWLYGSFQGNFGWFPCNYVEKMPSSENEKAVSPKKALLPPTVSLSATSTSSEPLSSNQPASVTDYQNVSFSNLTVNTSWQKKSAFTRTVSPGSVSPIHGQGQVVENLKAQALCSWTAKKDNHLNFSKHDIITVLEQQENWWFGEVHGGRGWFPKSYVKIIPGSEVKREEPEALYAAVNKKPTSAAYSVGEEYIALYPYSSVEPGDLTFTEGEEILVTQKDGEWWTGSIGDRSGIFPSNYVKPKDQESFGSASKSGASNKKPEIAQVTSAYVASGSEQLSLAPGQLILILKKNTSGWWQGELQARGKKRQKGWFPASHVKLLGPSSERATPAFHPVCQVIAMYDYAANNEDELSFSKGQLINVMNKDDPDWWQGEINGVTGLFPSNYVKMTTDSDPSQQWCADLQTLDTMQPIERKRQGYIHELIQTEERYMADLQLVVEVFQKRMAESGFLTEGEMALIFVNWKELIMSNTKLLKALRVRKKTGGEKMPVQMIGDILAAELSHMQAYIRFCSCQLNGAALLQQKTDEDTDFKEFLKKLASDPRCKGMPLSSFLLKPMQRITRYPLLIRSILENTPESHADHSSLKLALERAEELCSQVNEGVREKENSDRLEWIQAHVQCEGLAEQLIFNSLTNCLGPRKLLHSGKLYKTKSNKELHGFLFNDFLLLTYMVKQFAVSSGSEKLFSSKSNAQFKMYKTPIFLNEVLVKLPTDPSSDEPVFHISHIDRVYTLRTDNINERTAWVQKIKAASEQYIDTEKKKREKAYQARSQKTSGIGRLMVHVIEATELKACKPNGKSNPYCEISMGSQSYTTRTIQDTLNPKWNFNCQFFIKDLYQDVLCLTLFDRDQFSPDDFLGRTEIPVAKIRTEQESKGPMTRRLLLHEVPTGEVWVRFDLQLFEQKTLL
UniProt Q9Y388: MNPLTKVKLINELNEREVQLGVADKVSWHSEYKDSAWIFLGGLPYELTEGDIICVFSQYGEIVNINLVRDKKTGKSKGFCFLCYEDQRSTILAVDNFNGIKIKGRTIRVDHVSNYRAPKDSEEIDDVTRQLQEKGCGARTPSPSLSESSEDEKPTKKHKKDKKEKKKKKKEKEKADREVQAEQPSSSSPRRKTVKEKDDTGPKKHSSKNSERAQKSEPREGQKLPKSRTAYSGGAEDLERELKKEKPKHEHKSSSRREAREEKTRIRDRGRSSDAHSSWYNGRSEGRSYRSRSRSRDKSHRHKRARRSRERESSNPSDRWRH
UniProt Q96AY4: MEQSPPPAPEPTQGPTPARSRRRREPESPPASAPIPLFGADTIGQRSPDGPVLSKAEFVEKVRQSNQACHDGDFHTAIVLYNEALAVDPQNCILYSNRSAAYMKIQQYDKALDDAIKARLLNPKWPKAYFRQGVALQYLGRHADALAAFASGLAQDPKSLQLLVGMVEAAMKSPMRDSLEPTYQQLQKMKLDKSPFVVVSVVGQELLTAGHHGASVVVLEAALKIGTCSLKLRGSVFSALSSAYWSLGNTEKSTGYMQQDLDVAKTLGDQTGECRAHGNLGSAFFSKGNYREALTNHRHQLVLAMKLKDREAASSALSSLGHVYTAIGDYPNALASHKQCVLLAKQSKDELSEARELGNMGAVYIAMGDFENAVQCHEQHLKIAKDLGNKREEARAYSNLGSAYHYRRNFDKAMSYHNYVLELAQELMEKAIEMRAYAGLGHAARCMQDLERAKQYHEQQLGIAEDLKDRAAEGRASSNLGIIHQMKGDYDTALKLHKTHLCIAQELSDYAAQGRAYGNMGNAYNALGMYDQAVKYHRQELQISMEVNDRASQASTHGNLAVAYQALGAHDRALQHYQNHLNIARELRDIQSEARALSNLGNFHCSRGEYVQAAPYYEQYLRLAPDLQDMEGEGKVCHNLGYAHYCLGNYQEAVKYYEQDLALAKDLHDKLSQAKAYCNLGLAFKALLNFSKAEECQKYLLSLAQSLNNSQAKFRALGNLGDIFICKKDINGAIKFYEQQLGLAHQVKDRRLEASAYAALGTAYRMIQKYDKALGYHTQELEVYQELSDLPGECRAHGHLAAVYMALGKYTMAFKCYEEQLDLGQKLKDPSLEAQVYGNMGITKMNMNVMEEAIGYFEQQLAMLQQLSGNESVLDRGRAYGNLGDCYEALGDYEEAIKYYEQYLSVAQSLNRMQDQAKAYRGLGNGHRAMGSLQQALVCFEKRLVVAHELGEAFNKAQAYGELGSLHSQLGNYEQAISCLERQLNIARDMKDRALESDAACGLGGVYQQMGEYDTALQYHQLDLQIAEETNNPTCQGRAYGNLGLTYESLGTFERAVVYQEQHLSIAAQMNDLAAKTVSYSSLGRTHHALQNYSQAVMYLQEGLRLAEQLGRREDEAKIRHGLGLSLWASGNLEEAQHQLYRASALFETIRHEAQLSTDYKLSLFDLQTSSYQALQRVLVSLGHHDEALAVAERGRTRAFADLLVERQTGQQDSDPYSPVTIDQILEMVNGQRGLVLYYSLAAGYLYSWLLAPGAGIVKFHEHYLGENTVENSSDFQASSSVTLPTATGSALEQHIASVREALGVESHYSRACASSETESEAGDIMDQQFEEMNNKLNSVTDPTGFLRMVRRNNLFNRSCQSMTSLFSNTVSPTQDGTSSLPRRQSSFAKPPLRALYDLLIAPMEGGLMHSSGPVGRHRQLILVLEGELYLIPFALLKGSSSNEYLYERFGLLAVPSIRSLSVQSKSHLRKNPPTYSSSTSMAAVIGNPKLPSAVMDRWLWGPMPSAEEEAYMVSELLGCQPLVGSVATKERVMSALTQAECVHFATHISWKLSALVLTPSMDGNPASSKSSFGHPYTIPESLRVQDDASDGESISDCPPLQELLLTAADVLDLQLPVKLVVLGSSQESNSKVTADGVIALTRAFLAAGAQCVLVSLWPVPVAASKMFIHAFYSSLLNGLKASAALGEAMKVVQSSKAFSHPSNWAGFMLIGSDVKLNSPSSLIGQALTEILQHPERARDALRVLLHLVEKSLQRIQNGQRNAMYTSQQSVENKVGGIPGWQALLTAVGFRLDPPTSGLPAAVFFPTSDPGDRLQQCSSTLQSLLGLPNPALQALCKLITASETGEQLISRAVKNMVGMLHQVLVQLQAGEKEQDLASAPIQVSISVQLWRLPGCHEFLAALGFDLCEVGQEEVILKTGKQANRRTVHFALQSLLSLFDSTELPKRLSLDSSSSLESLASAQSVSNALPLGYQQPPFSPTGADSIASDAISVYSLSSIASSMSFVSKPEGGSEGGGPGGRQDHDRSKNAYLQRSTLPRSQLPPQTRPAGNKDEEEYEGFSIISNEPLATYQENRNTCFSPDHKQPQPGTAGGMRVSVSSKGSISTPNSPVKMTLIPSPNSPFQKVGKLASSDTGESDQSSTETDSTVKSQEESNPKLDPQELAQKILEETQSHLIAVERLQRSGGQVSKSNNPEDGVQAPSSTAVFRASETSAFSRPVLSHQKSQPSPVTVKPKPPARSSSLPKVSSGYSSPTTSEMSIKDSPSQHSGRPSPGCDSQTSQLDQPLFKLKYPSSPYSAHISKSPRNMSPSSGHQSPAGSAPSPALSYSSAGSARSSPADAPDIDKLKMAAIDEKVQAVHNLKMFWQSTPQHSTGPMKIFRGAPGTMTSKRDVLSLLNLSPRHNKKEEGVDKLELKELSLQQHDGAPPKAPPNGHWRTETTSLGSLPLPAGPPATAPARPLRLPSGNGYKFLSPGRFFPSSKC
UniProt Q96RQ1: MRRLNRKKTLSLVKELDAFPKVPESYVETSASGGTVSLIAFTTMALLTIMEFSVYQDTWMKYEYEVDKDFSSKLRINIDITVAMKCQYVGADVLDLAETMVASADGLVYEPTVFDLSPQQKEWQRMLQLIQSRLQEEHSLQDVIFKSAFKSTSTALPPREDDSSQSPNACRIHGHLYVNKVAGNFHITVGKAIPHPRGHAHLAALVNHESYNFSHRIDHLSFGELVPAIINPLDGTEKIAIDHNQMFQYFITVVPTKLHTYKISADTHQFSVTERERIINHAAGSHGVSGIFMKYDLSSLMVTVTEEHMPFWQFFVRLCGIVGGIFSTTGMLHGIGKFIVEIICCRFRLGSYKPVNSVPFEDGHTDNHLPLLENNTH
UniProt Q92504: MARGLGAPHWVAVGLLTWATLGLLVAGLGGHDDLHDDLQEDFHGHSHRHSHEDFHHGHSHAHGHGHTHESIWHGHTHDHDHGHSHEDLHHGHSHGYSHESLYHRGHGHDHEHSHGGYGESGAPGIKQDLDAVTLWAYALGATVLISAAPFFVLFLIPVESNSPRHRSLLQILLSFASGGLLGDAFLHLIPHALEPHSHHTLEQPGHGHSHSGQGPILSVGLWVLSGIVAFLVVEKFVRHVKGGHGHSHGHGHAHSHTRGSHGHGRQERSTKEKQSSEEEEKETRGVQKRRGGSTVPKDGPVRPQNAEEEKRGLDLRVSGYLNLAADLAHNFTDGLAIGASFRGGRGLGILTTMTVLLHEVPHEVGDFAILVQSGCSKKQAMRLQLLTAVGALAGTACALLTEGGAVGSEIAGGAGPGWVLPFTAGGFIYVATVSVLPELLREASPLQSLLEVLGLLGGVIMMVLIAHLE
UniProt P46379: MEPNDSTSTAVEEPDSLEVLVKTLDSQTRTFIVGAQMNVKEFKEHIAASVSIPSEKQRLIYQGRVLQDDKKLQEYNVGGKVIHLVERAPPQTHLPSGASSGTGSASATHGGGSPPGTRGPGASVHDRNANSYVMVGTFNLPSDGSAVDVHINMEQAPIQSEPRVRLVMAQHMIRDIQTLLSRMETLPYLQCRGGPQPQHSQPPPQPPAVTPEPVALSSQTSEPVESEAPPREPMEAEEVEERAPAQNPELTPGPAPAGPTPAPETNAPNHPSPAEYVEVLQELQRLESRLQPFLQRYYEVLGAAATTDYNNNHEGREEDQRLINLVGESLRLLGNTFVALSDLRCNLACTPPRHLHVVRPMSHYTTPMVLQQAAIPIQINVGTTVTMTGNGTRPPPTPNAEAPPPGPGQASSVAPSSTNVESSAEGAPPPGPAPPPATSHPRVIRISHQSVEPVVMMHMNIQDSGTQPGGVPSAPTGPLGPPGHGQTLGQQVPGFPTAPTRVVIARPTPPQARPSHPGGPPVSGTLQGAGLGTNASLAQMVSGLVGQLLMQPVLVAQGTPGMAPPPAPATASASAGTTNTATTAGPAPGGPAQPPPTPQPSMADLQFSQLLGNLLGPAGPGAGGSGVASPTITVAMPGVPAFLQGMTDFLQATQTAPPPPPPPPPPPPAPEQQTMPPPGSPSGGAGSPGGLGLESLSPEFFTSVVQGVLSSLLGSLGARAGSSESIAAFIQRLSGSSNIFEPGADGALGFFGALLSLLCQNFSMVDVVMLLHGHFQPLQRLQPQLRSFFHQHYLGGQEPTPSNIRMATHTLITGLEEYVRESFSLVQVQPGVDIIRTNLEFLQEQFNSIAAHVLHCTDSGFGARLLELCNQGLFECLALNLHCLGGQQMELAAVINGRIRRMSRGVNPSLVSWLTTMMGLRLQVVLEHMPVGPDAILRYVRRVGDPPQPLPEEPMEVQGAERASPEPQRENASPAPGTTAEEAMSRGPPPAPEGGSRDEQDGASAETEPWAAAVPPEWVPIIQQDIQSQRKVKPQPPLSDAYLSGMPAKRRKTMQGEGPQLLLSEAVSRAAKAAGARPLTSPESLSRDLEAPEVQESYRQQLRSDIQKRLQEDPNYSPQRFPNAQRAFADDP

Compound: Nc1ncnc2c1ncn2[C@@H]1O[C@H](COP(=O)(O)OP(=O)(O)NP(=O)(O)O)[C@@H](O)[C@H]1O [adenylyl imidodiphosphate]
Test: NP40-soluble protein abundance relative to vehicle (solubility fold change) (ratio); higher = more soluble protein in presence of AMP-PNP
How it was run: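 Each value is a fold change relative to the detergent-processed vehicle, calculated per replicate from vsn-normalised intensities. Jurkat crude lysate received eight concentrations (0.1 to 10 mM) for 10 min at room temperature and 3 min at 37 °C, then was solubilised in 0.8% NP40 with benzonase (60 min, 4 °C). The ultracentrifuged supernatant was TMT-labelled and run by LC-MS/MS in three independent experiments.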

Target	NP40-soluble protein abundance (concentration: 1mM)	NP40-soluble protein abundance (concentration: 2mM)	NP40-soluble protein abundance (concentration: 4mM)	NP40-soluble protein abundance (concentration: 6mM)	NP40-soluble protein abundance (concentration: 8mM)	NP40-soluble protein abundance (concentration: 10mM)
A0A087WUQ6|P07203 (UniProt P07203)	1.02 ± 0.017	1.06 ± 0.029	1.031 ± 0.0073	0.997 ± 0.02	0.998 ± 0.025	0.996 ± 0.011
A0A087WTT2|Q5JWB9 and related entries (UniProt Q96A57)	0.976 ± 0.038	1.01 ± 0.047	0.959 ± 0.062	0.999 ± 0.062	0.99 ± 0.043	0.983 ± 0.091
A0A087WUU9|P47974 (UniProt P47974)	0.999 ± 0.022	1.03 ± 0.063	0.9879 ± 0.0024	0.978 ± 0.018	0.982 ± 0.036	0.962 ± 0.023
A0A087WW40|Q9Y371 and related entries (UniProt Q9Y371)	1.04 ± 0.043	1.04 ± 0.057	0.97 ± 0.026	0.9722 ± 0.0066	0.917 ± 0.017	0.933 ± 0.047
A0A087WUL2|P49720 (UniProt P49720)	0.888 ± 0.051	0.806 ± 0.034	0.937 ± 0.12	1.03 ± 0.15	1.1 ± 0.13	1.08 ± 0.18
A0A087WVF7|Q9NZM3 and related entries (UniProt Q9NZM3)	1.048 ± 0.0098	1.09 ± 0.056	1.05 ± 0.04	1.06 ± 0.031	1.01 ± 0.023	1.07 ± 0.051
A0A087WUZ9|Q16760 and related entries (UniProt Q16760)	0.964 ± 0.024	1.01 ± 0.026	1.07 ± 0.089	1.07 ± 0.022	1.09 ± 0.045	1.05 ± 0.054
A0A087WUH0|P28715 (UniProt P28715)	1.05 ± 0.015	1.11 ± 0.065	1.095 ± 0.0082	1.06 ± 0.028	1.03 ± 0.022	1.063 ± 0.0046
A0A087WUI1|Q9Y388 (UniProt Q9Y388)	1.05 ± 0.044	0.997 ± 0.024	1.01 ± 0.022	1.09 ± 0.025	1.12 ± 0.033	1.13 ± 0.063
A0A087WVQ6|Q00610 and related entries (UniProt Q00610)	0.927 ± 0.021	0.831 ± 0.094	0.854 ± 0.012	0.838 ± 0.032	0.839 ± 0.014	0.788 ± 0.017
A0A087WTW5|Q9UKL3 (UniProt Q9UKL3)	1.02 ± 0.034	1.05 ± 0.015	1.03 ± 0.056	1.03 ± 0.047	1.023 ± 0.0063	1.01 ± 0.024
A0A024R4Q5|G5E9B5 and related entries (UniProt P0C1Z6)	0.969 ± 0.037	0.994 ± 0.077	0.993 ± 0.03	0.974 ± 0.043	0.999 ± 0.022	0.98 ± 0.039
A0A087WVA8|Q8IWB9 and related entries (UniProt Q8IWB9)	1.01 ± 0.061	1.01 ± 0.058	0.989 ± 0.053	0.98 ± 0.036	0.987 ± 0.048	0.991 ± 0.027
A0A087WTM5|H7BYJ1 and related entries (UniProt Q969K3)	0.928 ± 0.091	0.914 ± 0.085	0.915 ± 0.071	0.914 ± 0.074	0.924 ± 0.071	0.926 ± 0.05
A0A087WVS8|Q70IA6 and related entries (UniProt Q70IA6)	0.972 ± 0.026	0.925 ± 0.11	0.95 ± 0.063	0.946 ± 0.015	0.959 ± 0.026	0.9181 ± 0.007
A0A087WW06|Q96AY4 (UniProt Q96AY4)	0.995 ± 0.017	1.01 ± 0.011	0.969 ± 0.011	1.005 ± 0.0099	0.97961 ± 0.00025	0.957 ± 0.03
A0A024R4M0|P46781 (UniProt P46781)	0.938 ± 0.019	0.821 ± 0.072	0.891 ± 0.1	0.855 ± 0.031	0.848 ± 0.084	0.874 ± 0.15

Target	NP40-soluble protein abundance (concentration: 1mM)	NP40-soluble protein abundance (concentration: 2mM)	NP40-soluble protein abundance (concentration: 4mM)	NP40-soluble protein abundance (concentration: 6mM)	NP40-soluble protein abundance (concentration: 8mM)	NP40-soluble protein abundance (concentration: 10mM)
A0A087WV86|B5LMG6 and related entries (UniProt Q6PGQ7+B5LMG6)	1.019 ± 0.0098	1.036 ± 0.0083	0.992 ± 0.0092	1.012 ± 0.0096	1.006 ± 0.0059	0.992 ± 0.016
A0A087WU62|A0A087X2D5|A0A0G2JMS5|Q9BRJ2 (UniProt Q9BRJ2)	0.998 ± 0.11	0.971 ± 0.061	0.978 ± 0.091	0.951 ± 0.15	0.92 ± 0.095	0.933 ± 0.13
A0A067XG54|Q8NB49 and related entries (UniProt Q8NB49)	0.999 ± 0.028	0.942 ± 0.057	0.986 ± 0.028	0.965 ± 0.022	0.976 ± 0.012	0.941 ± 0.036
A0A087WVN1|Q5JPI9 (UniProt Q5JPI9)	0.994 ± 0.021	0.995 ± 0.021	1.11 ± 0.063	1.032 ± 0.0056	1.04 ± 0.014	1.01 ± 0.03
A0A087WU02|F8VPA6 and related entries (UniProt Q96RQ1)	0.938 ± 0.053	0.957 ± 0.044	0.954 ± 0.059	0.958 ± 0.053	0.971 ± 0.064	0.981 ± 0.01
A0A087WUS0|E7ETK0 and related entries (UniProt P62847)	0.98 ± 0.065	0.965 ± 0.061	0.912 ± 0.12	0.936 ± 0.083	0.892 ± 0.097	0.939 ± 0.17
A0A024R4E5|Q00341 (UniProt Q00341)	0.9949 ± 0.0089	0.973 ± 0.031	1.01 ± 0.013	1.006 ± 0.0057	1.01 ± 0.022	1.03 ± 0.014
A0A075B6T4|Q9NVX7 and related entries (UniProt Q9NVX7)	0.988 ± 0.034	1.03 ± 0.041	0.962 ± 0.056	0.956 ± 0.061	0.981 ± 0.034	0.941 ± 0.076
A0A087WU65|Q9NRW7 (UniProt Q9NRW7)	0.953 ± 0.012	0.916 ± 0.068	0.947 ± 0.033	0.956 ± 0.027	0.979 ± 0.035	0.934 ± 0.016
A0A087WU64|A6NMQ1 and related entries (UniProt P09884)	0.963 ± 0.0094	0.948 ± 0.038	0.972 ± 0.011	0.95 ± 0.011	0.9226 ± 0.0051	0.935 ± 0.026
A0A075B6F9|Q9Y314 (UniProt Q9Y314)	1.01 ± 0.036	1.02 ± 0.05	1.01 ± 0.017	1.02 ± 0.033	1.02 ± 0.032	1.04 ± 0.049
A0A024QZP7|P06493 (UniProt P06493)	1.03 ± 0.016	0.946 ± 0.06	1.02 ± 0.024	1.02 ± 0.023	1.053 ± 0.004	1 ± 0.015
A0A087WTX2|Q92504 (UniProt Q92504)	0.972 ± 0.025	0.9574 ± 0.0066	0.934 ± 0.059	0.91 ± 0.012	0.9224 ± 0.0044	0.864 ± 0.043
A0A024RCR6|A0A0G2JK23|P46379 and related entries (UniProt P46379)	0.96 ± 0.054	1.02 ± 0.06	0.985 ± 0.035	0.967 ± 0.039	0.953 ± 0.026	0.963 ± 0.055
A0A075B746|P82921 (UniProt P82921)	1.009 ± 0.0094	0.976 ± 0.046	0.974 ± 0.043	0.975 ± 0.012	0.977 ± 0.043	0.968 ± 0.087
A0A075B716|H0YN88 and related entries (UniProt P08708)	1.02 ± 0.072	1.01 ± 0.071	0.987 ± 0.13	0.905 ± 0.12	0.89 ± 0.087	0.966 ± 0.15
A0A087WUB9|Q8WYA6 (UniProt Q8WYA6)	1.01 ± 0.014	1.01 ± 0.015	1.03 ± 0.035	1.07 ± 0.022	1.1 ± 0.048	1.15 ± 0.062

Just NP40-soluble protein abundance (concentration: 1mM) and NP40-soluble protein abundance (concentration: 10mM) (two entries from above):
Target,NP40-soluble protein abundance (concentration: 1mM),NP40-soluble protein abundance (concentration: 10mM)
A0A087WV86|B5LMG6 and related entries (UniProt Q6PGQ7+B5LMG6),1.019 ± 0.0098,0.992 ± 0.016
A0A087WU62|A0A087X2D5|A0A0G2JMS5|Q9BRJ2 (UniProt Q9BRJ2),0.998 ± 0.11,0.933 ± 0.13
